The source of these data is article PMC7819943, “Rice protein-binding microarrays: a tool to detect cis-acting elements near promoter regions in rice”.

The chains behind the UniProt entries cited, without tags or fusion partners.
UniProt Q0JBA9, entry or part of it: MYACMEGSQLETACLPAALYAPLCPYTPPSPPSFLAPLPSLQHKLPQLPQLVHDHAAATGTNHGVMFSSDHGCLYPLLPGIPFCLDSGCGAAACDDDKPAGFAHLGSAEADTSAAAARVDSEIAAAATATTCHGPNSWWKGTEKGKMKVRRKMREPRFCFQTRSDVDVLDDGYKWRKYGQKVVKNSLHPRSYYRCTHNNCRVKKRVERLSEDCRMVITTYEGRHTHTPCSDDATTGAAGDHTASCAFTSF

This is one part of the list.

The test has as its target OsWRKY34 (Oryza sativa, UniProt Q0JBA9 1-250). Briefly: protein-binding microarray (RPBM); PBS, 2% BSA, 51.3 ng/ul salmon testes DNA, 50 uM zinc acetate, 200 nM TF, 25 C, 1 h; high values mean tight binding. The following applies: protein: recombinant; tags: N-terminal polyhistidine and DsRed monomer fusion (pET32a); label: CyDye5-dUTP incorporated in the synthesized complementary strand; 3' TTTTT single-stranded linker to array surface; dsDNA, one strand shown. In a few lines: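 Polyhistidine-tagged DsRed fusions of transcription factors, joined at the N-terminus, were expressed in E. coli BL21-CodonPlus and isolated on Ni–NTA. They were incubated at 200 nM for 1 h at 25 °C on a custom Agilent array, double-stranded and BSA-blocked, in PBS with 2% BSA, salmon testes DNA and 50 µM zinc acetate. The binding signal is per-feature fluorescence intensity (arbitrary units) read on an Axon 4000B scanner after washing.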
As to “GATTGGTTGAAAATGTTTCTATTCTTAATGAATATCCTATCGGAGTCACCTAGTGCAG”, the binding signal was 8080 fluorescence intensity (a.u.). To “AAGGATCGCTTTGTTTCCTTTCGTTTCGTTTCGTTTTGGGCGGAGTCACCTAGTGCAG” belongs 8610 fluorescence intensity (a.u.); to “TCCACCTTCCCTTTTATTTTGGAGAACTTTACAGCCAAAACGGAGTCACCTAGTGCAG”, 11800 fluorescence intensity (a.u.).

As for “TGCATTCTTACTCTCTCTATCTTTAAAAAATCAATATTATCGGAGTCACCTAGTGCAG”, the binding signal is 8040 fluorescence intensity (a.u.). To “ATCTATCTCTGACCTCTCCTCTCCACATGCTCATCGATCACGGAGTCACCTAGTGCAG” belongs 8610 fluorescence intensity (a.u.); to “GCTCCGTGGCACTATTTTTTTTTTACCGCGAATCCTCCAACGGAGTCACCTAGTGCAG”, 9550 fluorescence intensity (a.u.). As for “GCACCACATCCCCACTCACCCCTGCGCCTCTCCCCAATTCCGGAGTCACCTAGTGCAG”, the binding signal was 8490 fluorescence intensity (a.u.). To “CAGTTTCGTCTCGCCGGCGTTGTATTTCCACATCAACGTGCGGAGTCACCTAGTGCAG” belongs 10800 fluorescence intensity (a.u.); to “CTGGTAGTTGCCTTGCGCGTTCTTTGTCTCTGTCTCTCTCCGGAGTCACCTAGTGCAG”, 10300 fluorescence intensity (a.u.); to “CTTCGCATCCCTGCCCGACTCGGCCTCTCTGTCGCCGTCCCGGAGTCACCTAGTGCAG”, 10300 fluorescence intensity (a.u.). To “CTCGTCGATGTAGCGCTCCTCCCGTTCCTGGTCTCCAACGCGGAGTCACCTAGTGCAG” belongs 8230 fluorescence intensity (a.u.); to “CTTCCCAAGCGTGTCGCCCTTATCCGGCTGCCTCGTGTCCCGGAGTCACCTAGTGCAG”, 8080 fluorescence intensity (a.u.); to “ATCCTGTTTTTTTTTGTTCCTTTTTTCTTTACTTTGCGCCCGGAGTCACCTAGTGCAG”, 13200 fluorescence intensity (a.u.). To “GGTGGAGAAGTGCGAGTGATGGCGCGGGGTAGTGGTGGGGCGGAGTCACCTAGTGCAG” belongs 11400 fluorescence intensity (a.u.); to “TGTCATTTATCGTAGTACAATTCTATCTCCACACCTTTCACGGAGTCACCTAGTGCAG”, 9090 fluorescence intensity (a.u.). Take “ACATTTATTCCAATTCATTCATCAATCTTCTCAAATTTAGCGGAGTCACCTAGTGCAG”: the binding signal is 8340 fluorescence intensity (a.u.). To “CCATTCTTCCTTTCTCTTTATTTTTTTCTCCCATTCTTTACGGAGTCACCTAGTGCAG” belongs 11900 fluorescence intensity (a.u.). To “TAAACGTTCGATATGACATGGTGAAAAATTTTTGGGTGGGCGGAGTCACCTAGTGCAG” belongs 9920 fluorescence intensity (a.u.). In the case of “TCGTCCACCTCGGCTCCGTCCCCACCCTCGTCGTCTCCTCCGGAGTCACCTAGTGCAG”, the binding signal was 11200 fluorescence intensity (a.u.). On to “CTTAGTTGTTATGGGCGGGTTAGAGTAATCTATTGTAACACGGAGTCACCTAGTGCAG”, for which the binding signal was 13500 fluorescence intensity (a.u.). Take “CCCATCCACGTCGCCGCTATTTTCGCGGCGCGCGCGCCGCCGGAGTCACCTAGTGCAG”: the binding signal is 10000 fluorescence intensity (a.u.). Consider “TACCATTTTTGTAGAAGCTCATATAGTACTATACTACAAACGGAGTCACCTAGTGCAG”, for which the binding signal is 8820 fluorescence intensity (a.u.).

As to “TCGATCCGCGCTTTTGTCCACGTCACCAATCCGTGGCAACCGGAGTCACCTAGTGCAG”, the binding signal is 10700 fluorescence intensity (a.u.). To “AGAGGAGTTGGGGCGGCGTGCAAGGGGCAGGGTCCCATCGCGGAGTCACCTAGTGCAG” belongs 8330 fluorescence intensity (a.u.); to “GTACTCGCCGCCACCACCACCGCGCCGCCGCCGCCGGCCGCGGAGTCACCTAGTGCAG”, 9770 fluorescence intensity (a.u.); to “CTACCGCCAGGCAGCTGCCTCCGTACTACTGCTGCCTCTTCGGAGTCACCTAGTGCAG”, 9220 fluorescence intensity (a.u.). To “TCTTCTGGTTCTTGCTCTTGTTCTTCTTCTTCTTCTCCACCGGAGTCACCTAGTGCAG” belongs 9380 fluorescence intensity (a.u.). To “GATTTCTTATGTATTTATCAAATTTGGCAACAAACTAAACCGGAGTCACCTAGTGCAG” belongs 9310 fluorescence intensity (a.u.).

For the sequence “TACCTCGGAAGCCTAGCCTATATATATCCGCCGTCTTTTCCGGAGTCACCTAGTGCAG”, the binding signal was 9420 fluorescence intensity (a.u.). To “CCTGTCTACGTTCATTCGACTATGAAATATCCCATCCTATCGGAGTCACCTAGTGCAG” belongs 10000 fluorescence intensity (a.u.); to “ATGTTTCTAGTCCCATTTAATTTAGTTAGTTTTTTTTTCGCGGAGTCACCTAGTGCAG”, 8190 fluorescence intensity (a.u.); to “CCTTCTGCTCATTGTTCCCCAAGAGCTTCGTCTTCGACAACGGAGTCACCTAGTGCAG”, 8270 fluorescence intensity (a.u.). To “TCTCGTCTCGGCCTCCGCCCCTTTCGTCCTCGCCGATCCCCGGAGTCACCTAGTGCAG” belongs 10300 fluorescence intensity (a.u.); to “CCGTCTCCGGCCATGTCCCCGTCAATCGCCGCCTCCCAGGCGGAGTCACCTAGTGCAG”, 8200 fluorescence intensity (a.u.); to “GCTGCATGTGATTCTTTGTTATGTGCTATGATTTTTTATACGGAGTCACCTAGTGCAG”, 9330 fluorescence intensity (a.u.). To “CACCGCATCCACCGCCTCGCCGTCGCCGCTCGGGGCCGCCCGGAGTCACCTAGTGCAG” belongs 9580 fluorescence intensity (a.u.); to “ATCCGCACTATCCGCCACTACCAAAACTAATTTATAAAATCGGAGTCACCTAGTGCAG”, 10000 fluorescence intensity (a.u.); to “AACTCACATCGATCCCAATGGAAGCTTTATTGCTATAAACCGGAGTCACCTAGTGCAG”, 8580 fluorescence intensity (a.u.). In the case of “TGAACCAAGCCGCCTTCGTTTTTTTCTTTCTTCCCAGACTCGGAGTCACCTAGTGCAG”, the binding signal was 8230 fluorescence intensity (a.u.).

Consider “GCCCCACCTACCAGCGGCGGCAGCAGCATTAACCTCCTACCGGAGTCACCTAGTGCAG”, for which the binding signal is 8960 fluorescence intensity (a.u.). To “AGGTATGTGGGGAGAGAGCATGGCATTAGGGTGATTCTAGCGGAGTCACCTAGTGCAG” belongs 13400 fluorescence intensity (a.u.); to “TCCATATTGCGTCTGTCAACTATCTGGTTTCTCCAAAAGACGGAGTCACCTAGTGCAG”, 9020 fluorescence intensity (a.u.).
